Reference: article PMC11633172
Results are given in words; binding and its absence hold for the method and conditions named. For part of these data: Binding can be weak; no strength is given. Sequences can lack the tags named with a protein. For part of these data: Binding seen in cells or lysates may run through a third protein.

Tests used:
[1] = target: T1, GST-tagged full-length EIN_066100 (Entamoeba invadens); assay: pull-down; GST-tagged bait from 250 µg bacterial lysate immobilised on glutathione beads and washed; 500 µg whole-cell amoebic lysate with Myc-tagged prey added, 1 h at 4°C; washed with IP-wash buffer; western blot with anti-Myc antibody; only the target purified
T1 sequence: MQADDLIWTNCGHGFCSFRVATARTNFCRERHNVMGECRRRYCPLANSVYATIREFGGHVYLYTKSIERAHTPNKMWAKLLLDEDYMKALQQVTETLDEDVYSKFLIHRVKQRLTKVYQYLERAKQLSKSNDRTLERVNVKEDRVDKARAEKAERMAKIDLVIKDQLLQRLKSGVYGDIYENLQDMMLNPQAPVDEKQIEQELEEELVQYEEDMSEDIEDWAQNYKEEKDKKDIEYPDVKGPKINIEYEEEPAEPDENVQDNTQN

[2] = target: GST-EIN_085620∆C (Entamoeba invadens); assay: as above
[3] = target: GST-EIN_085620∆N (Entamoeba invadens); assay: as above
[4] = target: GST-tagged full-length EIN_085620 (Entamoeba invadens); assay: as above
[5] = target: GST-tagged full-length EIN_085620 (Entamoeba invadens); assay: pull-down; GST-tagged EIN_085620 as bait on glutathione beads incubated with purified His-EIN_066100 as prey; western blot with anti-His-tag and anti-GST antibodies; both purified

Myc-tagged EIN_085620 (Entamoeba invadens)
binding [1]: binds weakly

Myc-tagged ERM-BP (EIN_083100) (Entamoeba invadens)
binding [1]: no binding

B1: Myc-tagged EIN_066100 (protein, UniProt A0A0A1TXQ0 1-265)
chain: T1 sequence
binding [2]: binds | binding [3]: no binding | binding [4]: binds

B2: His-EIN_066100 FL (protein, UniProt A0A0A1TXQ0 1-265)
chain: T1 sequence
binding [5]: binds
